These are yes or no findings as the source states them, for the method shown. Binding seen in cells or lysates may run through a third protein. Some entries that bind do so weakly or less than the wild type.

By UniProt entry, the sequences of proteins in these tests, tags left out. Residues count along the entry.
UniProt Q04206: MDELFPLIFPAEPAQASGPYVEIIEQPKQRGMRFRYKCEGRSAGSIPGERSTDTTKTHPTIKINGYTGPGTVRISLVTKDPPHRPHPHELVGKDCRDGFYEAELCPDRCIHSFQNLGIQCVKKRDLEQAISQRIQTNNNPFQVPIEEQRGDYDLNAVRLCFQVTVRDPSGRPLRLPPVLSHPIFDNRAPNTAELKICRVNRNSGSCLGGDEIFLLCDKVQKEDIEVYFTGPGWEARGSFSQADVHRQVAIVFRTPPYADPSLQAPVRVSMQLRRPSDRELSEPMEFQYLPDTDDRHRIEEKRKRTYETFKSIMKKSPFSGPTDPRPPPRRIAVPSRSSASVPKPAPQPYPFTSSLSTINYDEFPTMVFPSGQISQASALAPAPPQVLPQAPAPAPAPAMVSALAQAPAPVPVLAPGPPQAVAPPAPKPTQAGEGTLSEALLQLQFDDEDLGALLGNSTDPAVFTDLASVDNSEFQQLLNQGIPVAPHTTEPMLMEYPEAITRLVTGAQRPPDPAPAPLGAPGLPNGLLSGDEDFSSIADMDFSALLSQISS
UniProt P19838, residues 1-433: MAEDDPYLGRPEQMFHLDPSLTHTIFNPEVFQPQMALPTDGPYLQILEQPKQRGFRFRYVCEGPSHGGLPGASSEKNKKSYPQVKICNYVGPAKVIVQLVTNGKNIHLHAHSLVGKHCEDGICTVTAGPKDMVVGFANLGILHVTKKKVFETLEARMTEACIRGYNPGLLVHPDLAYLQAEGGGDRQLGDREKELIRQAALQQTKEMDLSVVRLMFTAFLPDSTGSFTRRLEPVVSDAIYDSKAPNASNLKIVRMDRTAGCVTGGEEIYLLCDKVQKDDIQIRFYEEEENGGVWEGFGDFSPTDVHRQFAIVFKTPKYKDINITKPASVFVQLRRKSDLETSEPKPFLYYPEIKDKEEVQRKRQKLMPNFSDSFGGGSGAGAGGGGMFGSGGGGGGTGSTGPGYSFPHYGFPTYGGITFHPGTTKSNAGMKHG

The test has as its target NF-κB p65 (human (endogenous in DU145)) (UniProt Q04206). Kind of test: co-IP; lysates of DU145/sh-Con and DU145/sh-E2F1 (E2F1 knock-down) cells immunoprecipitated with anti-NF-κB p65 antibody; immunoprecipitates blotted with anti-p65, anti-p50 and anti-E2F1.

Turning to NF-κB p50 (from UniProt P19838 1-433), the binding result is “binds”.
